Laboratory results as given in patent US20220281965A1 (AstraZeneca / MedImmune, published 2022).
No constants are given. Whether binding was seen depends on the method and setting. Some binding calls cover weakened binding; strength is not graded here.

Target: T1, mouse GDF-15 (mouse, UniProt Q9Z0J7 189-303)
T1 construct: also called mGDF-15
T1 sequence: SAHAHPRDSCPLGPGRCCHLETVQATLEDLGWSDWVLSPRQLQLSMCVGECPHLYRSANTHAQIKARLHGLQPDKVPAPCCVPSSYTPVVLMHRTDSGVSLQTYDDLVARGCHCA
Assay: HTRF binding assay, biotinylated antigen, titration of antibody
Description: Supernatants generated from the immunizations with human GDF-15 and purified IgGs were screened to identify IgGs with specific binding to human, cynomolgus, or mouse GDF-15. The HTRF (Homogeneous Time Resolved Fluorescence) assay is based on detection of a measurable FRET signal upon binding of a titration of test antibody to biotinylated human H202D GDF-15 variant, cynomolgus GDF-15 and mouse GDF-15. Europium cryptate (EuK) labelled Streptavidin and anti-human IgG XL665 (Cis Bio) were used as secondary detection reagents serving as energy donor and acceptor respectively. In the absence of test antibody binding, there is no detectable FRET fluorescence. When test antibody binds to GDF-15, the resulting physical proximity between the secondary reagent donor/acceptor pair results in FRET. FRET was measured ratiometrically [665 nm (acceptor)/620 nm (donor)] on an Envision plate reader, and data plotted using PRISM 6® software (Graphpad).

B1: AB1170019 (antibody, V domains shown)
VH: EVQLQQSGPELVKPGASVKIPCKASGYTFTDYNMDWVKQSHGKSLEWIGDINPNNGGTFYNQKFKDKATLTVDKSSSTAYMELRSLTSEDTAVYYCAREEKLYFGLMDYWGQGTSVTVSS
VL: DIQMTQSPASLSASVGETVTITCRASENIYSYLAWYQQKQGKSPQLLVYNAKTLAEGVPSRFSGSGSGIQFSLKINILQPEDFGNYYCQHQYGSPPTFGGGTKLEIK
With B1 the binding was “binds”.
